The text below walks through data of paper PMC6052347, “Structure and Function of the Campylobacter jejuni Chromosome Replication Origin”.

In this series the target is T1, 6HisCj1509 (UniProt Q0P820).
T1 sequence (looked up, limits assumed): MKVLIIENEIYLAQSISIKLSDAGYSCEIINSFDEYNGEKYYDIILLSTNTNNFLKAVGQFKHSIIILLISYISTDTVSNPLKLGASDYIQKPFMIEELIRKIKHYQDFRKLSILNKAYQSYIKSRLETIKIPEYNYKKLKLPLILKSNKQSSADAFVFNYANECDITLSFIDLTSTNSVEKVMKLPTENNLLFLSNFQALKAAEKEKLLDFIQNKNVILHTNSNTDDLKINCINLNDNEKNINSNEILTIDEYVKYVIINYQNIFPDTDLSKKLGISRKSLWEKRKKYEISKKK
Put plainly: EMSA. Particulars: lower complex intensity than box 2; EMSA: room temperature, 15 min, up to 30 nM DnaA or 400 nM Cj1509, 4% PAGE in 1x TBE; box probes 0.4 uM; binding buffer not given (as in Jaworski 2016); recombinant protein; protein details: N-terminal 6xHis (pET28a); label: FAM 5' on E7.

For at least one entry, the source does not settle the construct or the ends of the probe. Weaker means in comparison with the reference protein, sequence or condition of that experiment. Where a protein sequence is shown, tags need not be part of it.

Regarding “GTGCCCTGGTCTGG / TTTGAAGAAAGTATCAATTTCAACA / TGTTGAAATTGATACTTTCTTCAAACCAGACCAGGGCAC [Cj1509 box 3 probe (E7-E12-E13)]”, the binding result is on record as “binds more weakly”.

Consider “GTGCCCTGGTCTGG / TTTGAAGAATTTCACAATTTCAACA / TGTTGAAATTGTGAAATTCTTCAAACCAGACCAGGGCAC [Cj1509 box 1 probe (E7-E8-E9)]”, for which the binding result was “binds more weakly”.
